Results are given as percent effect. The controls that fix the scale are not given in the record; negative values are as filed. This is an unselected part of the compounds tested.

Protein sequences, listed by entry. Tags and fused reporters are not part of them. Residues count along the entry.
UniProt Q8IDJ8, 1-583: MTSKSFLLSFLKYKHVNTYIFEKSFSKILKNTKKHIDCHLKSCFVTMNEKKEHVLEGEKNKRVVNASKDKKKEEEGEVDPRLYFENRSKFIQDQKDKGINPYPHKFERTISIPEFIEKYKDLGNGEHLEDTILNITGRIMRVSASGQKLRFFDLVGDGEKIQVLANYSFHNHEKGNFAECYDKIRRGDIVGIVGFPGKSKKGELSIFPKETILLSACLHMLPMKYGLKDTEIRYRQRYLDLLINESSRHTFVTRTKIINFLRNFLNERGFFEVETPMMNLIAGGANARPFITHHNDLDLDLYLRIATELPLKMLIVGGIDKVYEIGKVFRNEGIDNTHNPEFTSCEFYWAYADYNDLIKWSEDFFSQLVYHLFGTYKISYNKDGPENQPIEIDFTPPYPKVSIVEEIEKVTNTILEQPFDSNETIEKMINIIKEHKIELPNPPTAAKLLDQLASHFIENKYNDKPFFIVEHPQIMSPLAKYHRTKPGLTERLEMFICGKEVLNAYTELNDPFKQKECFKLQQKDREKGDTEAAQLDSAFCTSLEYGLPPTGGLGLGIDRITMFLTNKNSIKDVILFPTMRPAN
UniProt A4I591, 1-473: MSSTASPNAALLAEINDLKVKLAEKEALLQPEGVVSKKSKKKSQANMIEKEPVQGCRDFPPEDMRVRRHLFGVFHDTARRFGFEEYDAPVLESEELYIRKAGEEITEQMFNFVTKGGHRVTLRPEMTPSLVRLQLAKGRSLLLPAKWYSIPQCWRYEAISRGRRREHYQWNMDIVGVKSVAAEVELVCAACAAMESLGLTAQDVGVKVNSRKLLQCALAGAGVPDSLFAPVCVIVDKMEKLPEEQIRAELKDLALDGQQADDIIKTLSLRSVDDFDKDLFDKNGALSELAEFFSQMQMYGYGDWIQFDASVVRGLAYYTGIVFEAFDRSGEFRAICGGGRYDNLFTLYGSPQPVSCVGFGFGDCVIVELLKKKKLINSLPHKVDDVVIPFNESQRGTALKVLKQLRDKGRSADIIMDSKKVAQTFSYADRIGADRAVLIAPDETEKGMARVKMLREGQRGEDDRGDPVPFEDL

T. brucei: 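Whole-parasite assay of Trypanosoma brucei over 72 hours; the read-out is not stated. Compounds at 30 µM. Direction is inferred from retests: higher values go with stronger inhibition. Values scatter widely below zero; nearly all retest evidence comes from the higher of the two concentrations used. Size under these conditions: about 64,000 compounds, about 940 of them at 50% or above in at least one test.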
PfKRS1: 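Lysine-tRNA ligase, Plasmodium falciparum 3D7 (UniProt Q8IDJ8). Enzyme assay of the cytosolic lysyl-tRNA synthetase in 384-well plates, read by luminescence. Compounds at 30 µM. Higher reads as stronger inhibition, judged from the few compounds that gave an IC50. Of about 69,000 compounds tested this way, about 49 (0.071%) reached 50% or more in at least one test.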
LiHisRS: 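Histidine-tRNA ligase, Leishmania infantum (UniProt A4I591). Enzyme assay of histidyl-tRNA synthetase; the read-out is not stated. Tested at 30 µM. The record gives no direction; compounds that gave an IC50 in retests scored well above the rest, so higher reads as stronger inhibition. The assay is labelled LdHisRS but filed under L. infantum. Size under these conditions: about 69,000 compounds, about 410 of them at 50% or above in at least one test.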
Toxoplasma: 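Assay of Toxoplasma gondii numbers, read through their beta-galactosidase reporter with a colour substrate. Tested at 10 µM. Higher reads as fewer parasites (inferred from which compounds were picked for retests). Of about 67,000 compounds tested this way, about 260 (0.38%) reached 50% or more in at least one test.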

CN(C)C(=O)COc1ccccc1CNC1CCc2ncnn2C1 (configuration not stated) gave T. brucei: 9.232%; PfKRS1: 4.605%; LiHisRS: 15.87%; Toxoplasma: -3.599%.
CC1CCCCN1C(=O)c1cn(-c2ccc(C(F)(F)F)cn2)nn1 (configuration not stated) gave T. brucei: -3.213%; PfKRS1: 2.923%; LiHisRS: 13.16%; Toxoplasma: -4.643%.
CCN(CC)S(=O)(=O)NCC(O)c1c(Cl)cccc1Cl (configuration not stated) gave T. brucei: 0.07841%; PfKRS1: 9.55%; LiHisRS: 16.85%; Toxoplasma: 0.6627%.
CC(=O)N1CCC(NC(=O)N2CCN(c3cnccn3)CC2)CC1 gave T. brucei: -4.373%; PfKRS1: -0.3427%; LiHisRS: 3.636%; Toxoplasma: 6.094%.
Cc1ccc(S(=O)(=O)NCCNC(=O)c2cncnc2C)cc1 gave T. brucei: 1.135%; PfKRS1: 3.787%; LiHisRS: 2.74%; Toxoplasma: 9.7%.
O=C(NCCCc1nc(=O)[nH][nH]1)Nc1cccc(F)c1 gave T. brucei: -30.17%; PfKRS1: 3.079%; LiHisRS: 21.05%; Toxoplasma: 2.693%.
CCC(Nc1nc(CCN)nc2ccccc12)c1cccs1 (configuration not stated) gave T. brucei: 10.66%; PfKRS1: -2.986%; LiHisRS: 23.02%; Toxoplasma: 24.42%.
O=C(O)C(=O)O.c1coc(CN2CCC(c3ccc4c(c3)OCO4)CC2)c1 gave T. brucei: 12.51%; Toxoplasma: 7.751%.
O=C(CC1CC1)N1CC[C@@H]2[C@H](CC1)N(Cc1cccnc1)CCS2(=O)=O gave PfKRS1: -2.292%; LiHisRS: 13.89%.
O[C@@H]1CN(CC2CC2)CC[C@H]1N1CCN(c2ccccc2F)CC1 gave T. brucei: -44.28%; PfKRS1: 0.9293%; LiHisRS: 8.791%; Toxoplasma: 0.2072%.
Cc1oc(-c2cccc(F)c2)nc1CN1CCOCS1(=O)=O gave T. brucei: -125.8%; PfKRS1: 6.7%; LiHisRS: 19.3%; Toxoplasma: 11.94%.
COc1ccc(-c2n[nH]c(C)c2CC(=O)N2CCOCC2)cc1 gave T. brucei: 6.943%; PfKRS1: 0.951%; LiHisRS: 17.39%.
CCN(CC)Cc1cc(=O)n2c(n1)CN(S(=O)(=O)C1CC1)CCC2 gave PfKRS1: 5.645%; LiHisRS: 15.38%.
CCN1CCN(C(=O)C(C)N2CCc3cncnc3C2)CC1 (configuration not stated) gave T. brucei: -16.54%; PfKRS1: 2.469%; LiHisRS: 13.7%; Toxoplasma: -1.955%.
CCN1CC[C@@]2(C(=O)N(C)C)CCN(C(=O)NC(C)C)CC[C@@H]12 gave PfKRS1: -0.3671%; LiHisRS: 15.53%.
O=C(O)C(F)(F)F.[H][C@]12CCC[C@@H](CN(C)C3CC3)[C@@]1([H])CN(c1cc(OC)ncn1)C2 gave T. brucei: -20.62%; Toxoplasma: 2.176%.
COc1ccsc1C(=O)NCCN1CCOCC1 gave PfKRS1: -1.847%; LiHisRS: -10.42%; Toxoplasma: -23.93%.
Cc1cnn(C2CN(c3nc(C)cc(N(C)C)n3)C2)c1 gave T. brucei: -80.61%; PfKRS1: 3.265%; LiHisRS: 16.67%; Toxoplasma: 8.329%.
CS(=O)(=O)Nc1ccn(Cc2cccc(Cl)c2)n1 gave T. brucei: -11.66%; PfKRS1: 0.2413%; LiHisRS: 6.897%; Toxoplasma: 5.455%.
Cc1cnc(CN2CCCCC2c2nc(-c3ccccc3)no2)cn1 (configuration not stated) gave PfKRS1: 2.597%; LiHisRS: 28.21%; Toxoplasma: -1.531%.

For reference, 3 entries once more:

CCN1CCN(C(=O)C(C)N2CCc3cncnc3C2)CC1 (configuration not stated) gave T. brucei: -16.54%; PfKRS1: 2.469%; LiHisRS: 13.7%; Toxoplasma: -1.955%.
CCN1CC[C@@]2(C(=O)N(C)C)CCN(C(=O)NC(C)C)CC[C@@H]12 gave PfKRS1: -0.3671%; LiHisRS: 15.53%.
O=C(CC1CC1)N1CC[C@@H]2[C@H](CC1)N(Cc1cccnc1)CCS2(=O)=O gave PfKRS1: -2.292%; LiHisRS: 13.89%.

Source: ChEMBL document CHEMBL3988442, “University of Dundee, Small-Polar-MMV Screening Library” (2021).